Data source: PubChem BioAssay AID504784 (Drosophila RNAi Screening Center, 2011)
Screen: 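Fly genes whose silencing alters how much lipid cells keep in droplets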 (primary screen). Cells: Drosophila Kc167 embryonic cells. Knock-down reagent: long dsRNA against Drosophila genes, about 250 ng dsRNA per well. Duration: 4 days. Challenge: cells fed 400 µM oleic acid bound to BSA. Measured: 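Cells imaged and segmented; ratio of lipid droplet area to nuclear area, log-transformed, then normalised as a B-score over the screen; higher means more stored lipid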. Reading the numbers: droplet/nuclear area B-score: higher = more stored lipid (overstorage).
In all, the deposit lists about 17,000 reagents; shown is an unselected part of those that have a named target and a result. 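Each column is one replicate's B-score; the combined score over replicates was not deposited, so single values may mislead.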 Not all columns of the deposit are shown.

Gr43a [DRSC06658]: droplet/nuclear area B-score, replicate 1 = 0.0225
CG31777 [DRSC00201]: droplet/nuclear area B-score, replicate 1 = 0.345
Nhe3 [DRSC03380]: droplet/nuclear area B-score, replicate 1 = -0.621
Deaf1 [DRSC11143]: droplet/nuclear area B-score, replicate 1 = -1.78
Deaf1 [DRSC22786]: droplet/nuclear area B-score, replicate 1 = -0.195
subdued [DRSC15137]: droplet/nuclear area B-score, replicate 1 = -0.0237
CG16837 [DRSC04283]: droplet/nuclear area B-score, replicate 1 = 0.044
Cyp4s3 [DRSC20241]: droplet/nuclear area B-score, replicate 1 = 1.18
Cyp4s3 [DRSC22340]: droplet/nuclear area B-score, replicate 1 = 1.1
Ankrd49 [DRSC01894]: droplet/nuclear area B-score, replicate 1 = -0.737

Entries listed so far whose gene name begins with C or c:
CG31777 [DRSC00201]: droplet/nuclear area B-score, replicate 1 = 0.345
CG16837 [DRSC04283]: droplet/nuclear area B-score, replicate 1 = 0.044
Cyp4s3 [DRSC20241]: droplet/nuclear area B-score, replicate 1 = 1.18
Cyp4s3 [DRSC22340]: droplet/nuclear area B-score, replicate 1 = 1.1

The results go on.
CG10462 [DRSC02058]: droplet/nuclear area B-score, replicate 1 = 1.08
CG31270 (retired record) [DRSC22252]: droplet/nuclear area B-score, replicate 1 = 0.384
BG642163 [DRSC00342]: droplet/nuclear area B-score, replicate 1 = 1.07
BG642163 [DRSC00343]: droplet/nuclear area B-score, replicate 1 = 0.14
Eps-15 [DRSC04288]: droplet/nuclear area B-score, replicate 1 = -0.0186
Dso1 [DRSC21815]: droplet/nuclear area B-score, replicate 1 = 0.513
